# Results as given in the supplement of paper PMC8728848.
# Some of the results follow.
# Tests used:
# Assay in all cases: glycan array binding signal (z-score within array); higher = stronger binding
# Settings in all cases: glycan notation: IUPAC condensed, linker removed
# Gal6S(b1-4)Glc = biological target: Gal6S(b1-4)Glc
# Method in brief: (§1)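 From the Consortium for Functional Glycomics database, 3228 arrays were curated, keeping only those whose protein sequence was available. Binding is given as a within-array Z-score averaged across arrays sharing a protein sequence and across linkers. Negative Z-scores can be read as non-binding.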
# Gal6S(b1-4)Glc6S = biological target: Gal6S(b1-4)Glc6S
# Method in brief: as §1
# Gal6S(b1-4)GlcNAc = biological target: Gal6S(b1-4)GlcNAc
# Method in brief: as §1
# Gal6S(b1-4)GlcNAc6S = biological target: Gal6S(b1-4)GlcNAc6S
# Method in brief: as §1
# GalNAc(a1-3)Gal = biological target: GalNAc(a1-3)Gal
# Method in brief: as §1
# GalNAc(a1-3)GalNAc = biological target: GalNAc(a1-3)GalNAc
# Method in brief: as §1
# [1] = biological target: GalNAc(a1-3)GalNAc(b1-3)Gal(a1-4)Gal(b1-4)Glc
# Method in brief: as §1
# [2] = biological target: GalNAc(a1-3)GalNAc(b1-3)Gal(a1-4)Gal(b1-4)GlcNAc
# Method in brief: as §1
# GalNAc(b1-3)Gal = biological target: GalNAc(b1-3)Gal
# Method in brief: as §1
# [3] = biological target: GalNAc(b1-3)Gal(a1-4)Gal(b1-4)GlcNAc
# Method in brief: as §1
# [4] = biological target: GalNAc(b1-3)Gal(a1-4)Gal(b1-4)GlcNAc(b1-3)Gal(b1-4)Glc
# Method in brief: as §1
# [5] = biological target: GalNAc(b1-3)Gal(a1-6)Gal(b1-4)Glc
# Method in brief: as §1
# GalNAc(b1-3)GalNAc = biological target: GalNAc(b1-3)GalNAc
# Method in brief: as §1
# GalNAc(b1-3)GlcNAc = biological target: GalNAc(b1-3)GlcNAc
# Method in brief: as §1
# GalNAc(b1-4)Gal(b1-4)Glc = biological target: GalNAc(b1-4)Gal(b1-4)Glc
# Method in brief: as §1
# GalNAc(b1-4)GlcNAc = biological target: GalNAc(b1-4)GlcNAc
# Method in brief: as §1
# [6] = biological target: GalNAc(b1-4)GlcNAc(b1-2)Man
# Method in brief: as §1
# [7] = biological target: GalNAc(b1-4)GlcNAc(b1-2)Man(a1-3)[GalNAc(b1-4)GlcNAc(b1-2)Man(a1-6)]Man(b1-4)GlcNAc(b1-4)GlcNAc
# Method in brief: as §1
# [8] = biological target: GalNAc(b1-4)GlcNAc(b1-3)GalNAc(b1-4)GlcNAc
# Method in brief: as §1
# GalNAc(b1-4)GlcNAc6S = biological target: GalNAc(b1-4)GlcNAc6S
# Method in brief: as §1
# GalNAc(b1-6)GalNAc = biological target: GalNAc(b1-6)GalNAc
# Method in brief: as §1
# GalNAc3S(b1-4)GlcNAc = biological target: GalNAc3S(b1-4)GlcNAc
# Method in brief: as §1
# GalNAc3S(b1-4)GlcNAc3S = biological target: GalNAc3S(b1-4)GlcNAc3S
# Method in brief: as §1
# [9] = biological target: GalNAc3S(b1-4)[Fuc(a1-3)]GlcNAc
# Method in brief: as §1
# GalNAc4S6S(b1-4)GlcNAc = biological target: GalNAc4S6S(b1-4)GlcNAc
# Method in brief: as §1
# GalNAc6S(b1-4)GlcNAc = biological target: GalNAc6S(b1-4)GlcNAc
# Method in brief: as §1
# Glc(a1-4)Glc = biological target: Glc(a1-4)Glc
# Method in brief: as §1
# [10] = biological target: Glc(a1-4)Glc(a1-4)Glc(a1-4)Glc
# Method in brief: as §1
# Glc(a1-6)Glc(a1-6)Glc = biological target: Glc(a1-6)Glc(a1-6)Glc
# Method in brief: as §1
# [11] = biological target: Glc(a1-6)Glc(a1-6)Glc(a1-6)Glc
# Method in brief: as §1
# Glc(b1-4)Glc = biological target: Glc(b1-4)Glc
# Method in brief: as §1
# Glc(b1-6)Glc = biological target: Glc(b1-6)Glc
# Method in brief: as §1
# GlcA(b1-3)Gal = biological target: GlcA(b1-3)Gal
# Method in brief: as §1
# GlcA(b1-3)GlcNAc = biological target: GlcA(b1-3)GlcNAc
# Method in brief: as §1
# GlcA(b1-6)Gal = biological target: GlcA(b1-6)Gal
# Method in brief: as §1
# [12] = biological target: GlcA3S(b1-3)Gal(b1-4)GlcNAc(b1-2)Man
# Method in brief: as §1
# [13] = biological target: GlcA3S(b1-3)Gal(b1-4)GlcNAc(b1-3)Gal(b1-4)Glc
# Method in brief: as §1
binder,measurement,setting,value
"Clec12b (Mus musculus), Q149M0 (protein) MSDEVTYATLMLQDSARVRGNQDGNNLRKEGHPAQSSLWRGAALSLMTLCLVLVTGLVTLATMFLQVSNDINSDSEKLSQLQKSIHPQQDNLSESLNSSRKSLTEESLQSQISALLERQEQMATKLCKEFLIHASDHKCNPCPKTWQWYGNSCYYFSINEEKSWSDSRKDCIDKNATLVKIDSTEERDLLQSQLSLTFSFFWLGLSWNSSGRNWLWEDGSFPPPTLFSDKELASFNGSRDCAYFERGNIYASRCSAEIPWICEKTASLVKTEDLD",glycan array binding signal (z-score),Gal6S(b1-4)Glc,1.96
same,glycan array binding signal (z-score),Gal6S(b1-4)Glc6S,1.24
same,glycan array binding signal (z-score),Gal6S(b1-4)GlcNAc,-0.525
same,glycan array binding signal (z-score),Gal6S(b1-4)GlcNAc6S,-0.228
same,glycan array binding signal (z-score),GalNAc(a1-3)Gal,1.15
same,glycan array binding signal (z-score),GalNAc(a1-3)GalNAc,-0.461
same,glycan array binding signal (z-score),[1],-0.172
same,glycan array binding signal (z-score),[2],-0.428
same,glycan array binding signal (z-score),GalNAc(b1-3)Gal,0.114
same,glycan array binding signal (z-score),[3],0.178
same,glycan array binding signal (z-score),[4],-0.695
same,glycan array binding signal (z-score),[5],-0.176
same,glycan array binding signal (z-score),GalNAc(b1-3)GalNAc,-0.125
same,glycan array binding signal (z-score),GalNAc(b1-3)GlcNAc,-0.387
same,glycan array binding signal (z-score),GalNAc(b1-4)Gal(b1-4)Glc,0.106
same,glycan array binding signal (z-score),GalNAc(b1-4)GlcNAc,0.301
same,glycan array binding signal (z-score),[6],1.9
same,glycan array binding signal (z-score),[7],0.063
same,glycan array binding signal (z-score),[8],0.189
same,glycan array binding signal (z-score),GalNAc(b1-4)GlcNAc6S,-0.159
same,glycan array binding signal (z-score),GalNAc(b1-6)GalNAc,1.14
same,glycan array binding signal (z-score),GalNAc3S(b1-4)GlcNAc,-0.691
same,glycan array binding signal (z-score),GalNAc3S(b1-4)GlcNAc3S,-0.608
same,glycan array binding signal (z-score),[9],-0.662
same,glycan array binding signal (z-score),GalNAc4S6S(b1-4)GlcNAc,-0.653
same,glycan array binding signal (z-score),GalNAc6S(b1-4)GlcNAc,-0.398
same,glycan array binding signal (z-score),Glc(a1-4)Glc,1.09
same,glycan array binding signal (z-score),[10],0.081
same,glycan array binding signal (z-score),Glc(a1-6)Glc(a1-6)Glc,-0.416
same,glycan array binding signal (z-score),[11],-0.465
same,glycan array binding signal (z-score),Glc(b1-4)Glc,0
same,glycan array binding signal (z-score),Glc(b1-6)Glc,-0.441
same,glycan array binding signal (z-score),GlcA(b1-3)Gal,-0.165
same,glycan array binding signal (z-score),GlcA(b1-3)GlcNAc,-0.05
same,glycan array binding signal (z-score),GlcA(b1-6)Gal,-0.585
same,glycan array binding signal (z-score),[12],0.773
same,glycan array binding signal (z-score),[13],0.169

# An excerpt of these results, bar-delimited:
binder | measurement | setting | value
Clec12b (Mus musculus), Q149M0 (protein) MSDEVTYATLMLQDSARVRGNQDGNNLRKEGHPAQSSLWRGAALSLMTLCLVLVTGLVTLATMFLQVSNDINSDSEKLSQLQKSIHPQQDNLSESLNSSRKSLTEESLQSQISALLERQEQMATKLCKEFLIHASDHKCNPCPKTWQWYGNSCYYFSINEEKSWSDSRKDCIDKNATLVKIDSTEERDLLQSQLSLTFSFFWLGLSWNSSGRNWLWEDGSFPPPTLFSDKELASFNGSRDCAYFERGNIYASRCSAEIPWICEKTASLVKTEDLD | glycan array binding signal (z-score) | Gal6S(b1-4)Glc6S | 1.24
same | glycan array binding signal (z-score) | Gal6S(b1-4)GlcNAc | -0.525
